Some of the results follow.
How the values were obtained:
Assay in all cases: log2 fold change, soluble protein after heating vs DMSO (PISA); higher = thermal stabilisation; K562 cells, 10 uM, 30 min; active = over 0.2 and 3.5 SD of the protein, either way, in both replicates (recomputed)
[1] = compound: CS(=O)(=O)c1ccc(-c2cnc(N)c(C(=O)Nc3ccccc3)n2)cc1
Method in brief: (§1)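 K562 cells (2×10^6 cells/mL) were treated with 10 μM compound for 30 min, and aliquots were heated for 3 min over 48°C-58°C. Pooled aliquots were extracted in PBS with 0.5% NP-40 at 4°C, and the supernatant after 21,000xg for 90 min was measured by TMTpro 16plex LC-MS/MS with channel sums equalised. Reported thermal stability, relative to control samples and from duplicates, is a log2 fold change.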

By UniProt entry, the sequences of proteins in these tests, tags left out. Where a name states a change or a piece, a line headed by the entry shows the natural chain unless it says otherwise.
UniProt Q9BRK3: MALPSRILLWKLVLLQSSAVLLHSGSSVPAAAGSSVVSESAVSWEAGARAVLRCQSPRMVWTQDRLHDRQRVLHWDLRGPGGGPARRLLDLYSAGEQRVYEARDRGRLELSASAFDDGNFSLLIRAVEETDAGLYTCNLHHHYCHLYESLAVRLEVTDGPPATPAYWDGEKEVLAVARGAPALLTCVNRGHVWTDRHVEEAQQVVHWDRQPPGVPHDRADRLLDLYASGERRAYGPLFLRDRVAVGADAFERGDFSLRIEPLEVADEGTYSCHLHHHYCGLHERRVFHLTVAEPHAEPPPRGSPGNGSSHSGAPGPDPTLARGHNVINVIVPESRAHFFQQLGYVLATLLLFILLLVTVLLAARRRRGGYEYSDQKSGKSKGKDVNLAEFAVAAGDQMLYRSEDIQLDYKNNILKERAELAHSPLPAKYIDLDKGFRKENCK
UniProt P13640: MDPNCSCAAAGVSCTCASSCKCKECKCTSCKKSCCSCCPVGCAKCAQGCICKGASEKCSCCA
UniProt P03923, whole entry, looked up: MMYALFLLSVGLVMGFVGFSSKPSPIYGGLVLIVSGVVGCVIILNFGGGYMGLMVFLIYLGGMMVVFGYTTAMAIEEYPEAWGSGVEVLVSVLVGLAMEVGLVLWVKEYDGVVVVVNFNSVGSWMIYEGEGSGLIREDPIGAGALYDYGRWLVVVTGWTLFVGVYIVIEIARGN
UniProt Q969V5: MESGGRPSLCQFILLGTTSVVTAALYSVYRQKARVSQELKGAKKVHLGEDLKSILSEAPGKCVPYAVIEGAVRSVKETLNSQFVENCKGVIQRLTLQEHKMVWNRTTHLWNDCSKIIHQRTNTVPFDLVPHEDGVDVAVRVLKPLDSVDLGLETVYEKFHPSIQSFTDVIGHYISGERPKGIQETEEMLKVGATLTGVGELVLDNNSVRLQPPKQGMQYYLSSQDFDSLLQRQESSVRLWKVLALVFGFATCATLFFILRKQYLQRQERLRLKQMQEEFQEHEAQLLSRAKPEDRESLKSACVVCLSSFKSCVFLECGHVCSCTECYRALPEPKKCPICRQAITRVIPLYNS
UniProt P00414, whole entry, looked up: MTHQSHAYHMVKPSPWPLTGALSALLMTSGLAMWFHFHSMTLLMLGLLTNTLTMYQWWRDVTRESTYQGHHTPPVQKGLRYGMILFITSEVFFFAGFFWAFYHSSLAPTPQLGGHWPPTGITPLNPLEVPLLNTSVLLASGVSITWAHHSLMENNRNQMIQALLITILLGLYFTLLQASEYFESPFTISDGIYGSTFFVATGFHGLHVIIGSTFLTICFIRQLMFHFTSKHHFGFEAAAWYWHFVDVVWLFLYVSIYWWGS
UniProt B2RTY4: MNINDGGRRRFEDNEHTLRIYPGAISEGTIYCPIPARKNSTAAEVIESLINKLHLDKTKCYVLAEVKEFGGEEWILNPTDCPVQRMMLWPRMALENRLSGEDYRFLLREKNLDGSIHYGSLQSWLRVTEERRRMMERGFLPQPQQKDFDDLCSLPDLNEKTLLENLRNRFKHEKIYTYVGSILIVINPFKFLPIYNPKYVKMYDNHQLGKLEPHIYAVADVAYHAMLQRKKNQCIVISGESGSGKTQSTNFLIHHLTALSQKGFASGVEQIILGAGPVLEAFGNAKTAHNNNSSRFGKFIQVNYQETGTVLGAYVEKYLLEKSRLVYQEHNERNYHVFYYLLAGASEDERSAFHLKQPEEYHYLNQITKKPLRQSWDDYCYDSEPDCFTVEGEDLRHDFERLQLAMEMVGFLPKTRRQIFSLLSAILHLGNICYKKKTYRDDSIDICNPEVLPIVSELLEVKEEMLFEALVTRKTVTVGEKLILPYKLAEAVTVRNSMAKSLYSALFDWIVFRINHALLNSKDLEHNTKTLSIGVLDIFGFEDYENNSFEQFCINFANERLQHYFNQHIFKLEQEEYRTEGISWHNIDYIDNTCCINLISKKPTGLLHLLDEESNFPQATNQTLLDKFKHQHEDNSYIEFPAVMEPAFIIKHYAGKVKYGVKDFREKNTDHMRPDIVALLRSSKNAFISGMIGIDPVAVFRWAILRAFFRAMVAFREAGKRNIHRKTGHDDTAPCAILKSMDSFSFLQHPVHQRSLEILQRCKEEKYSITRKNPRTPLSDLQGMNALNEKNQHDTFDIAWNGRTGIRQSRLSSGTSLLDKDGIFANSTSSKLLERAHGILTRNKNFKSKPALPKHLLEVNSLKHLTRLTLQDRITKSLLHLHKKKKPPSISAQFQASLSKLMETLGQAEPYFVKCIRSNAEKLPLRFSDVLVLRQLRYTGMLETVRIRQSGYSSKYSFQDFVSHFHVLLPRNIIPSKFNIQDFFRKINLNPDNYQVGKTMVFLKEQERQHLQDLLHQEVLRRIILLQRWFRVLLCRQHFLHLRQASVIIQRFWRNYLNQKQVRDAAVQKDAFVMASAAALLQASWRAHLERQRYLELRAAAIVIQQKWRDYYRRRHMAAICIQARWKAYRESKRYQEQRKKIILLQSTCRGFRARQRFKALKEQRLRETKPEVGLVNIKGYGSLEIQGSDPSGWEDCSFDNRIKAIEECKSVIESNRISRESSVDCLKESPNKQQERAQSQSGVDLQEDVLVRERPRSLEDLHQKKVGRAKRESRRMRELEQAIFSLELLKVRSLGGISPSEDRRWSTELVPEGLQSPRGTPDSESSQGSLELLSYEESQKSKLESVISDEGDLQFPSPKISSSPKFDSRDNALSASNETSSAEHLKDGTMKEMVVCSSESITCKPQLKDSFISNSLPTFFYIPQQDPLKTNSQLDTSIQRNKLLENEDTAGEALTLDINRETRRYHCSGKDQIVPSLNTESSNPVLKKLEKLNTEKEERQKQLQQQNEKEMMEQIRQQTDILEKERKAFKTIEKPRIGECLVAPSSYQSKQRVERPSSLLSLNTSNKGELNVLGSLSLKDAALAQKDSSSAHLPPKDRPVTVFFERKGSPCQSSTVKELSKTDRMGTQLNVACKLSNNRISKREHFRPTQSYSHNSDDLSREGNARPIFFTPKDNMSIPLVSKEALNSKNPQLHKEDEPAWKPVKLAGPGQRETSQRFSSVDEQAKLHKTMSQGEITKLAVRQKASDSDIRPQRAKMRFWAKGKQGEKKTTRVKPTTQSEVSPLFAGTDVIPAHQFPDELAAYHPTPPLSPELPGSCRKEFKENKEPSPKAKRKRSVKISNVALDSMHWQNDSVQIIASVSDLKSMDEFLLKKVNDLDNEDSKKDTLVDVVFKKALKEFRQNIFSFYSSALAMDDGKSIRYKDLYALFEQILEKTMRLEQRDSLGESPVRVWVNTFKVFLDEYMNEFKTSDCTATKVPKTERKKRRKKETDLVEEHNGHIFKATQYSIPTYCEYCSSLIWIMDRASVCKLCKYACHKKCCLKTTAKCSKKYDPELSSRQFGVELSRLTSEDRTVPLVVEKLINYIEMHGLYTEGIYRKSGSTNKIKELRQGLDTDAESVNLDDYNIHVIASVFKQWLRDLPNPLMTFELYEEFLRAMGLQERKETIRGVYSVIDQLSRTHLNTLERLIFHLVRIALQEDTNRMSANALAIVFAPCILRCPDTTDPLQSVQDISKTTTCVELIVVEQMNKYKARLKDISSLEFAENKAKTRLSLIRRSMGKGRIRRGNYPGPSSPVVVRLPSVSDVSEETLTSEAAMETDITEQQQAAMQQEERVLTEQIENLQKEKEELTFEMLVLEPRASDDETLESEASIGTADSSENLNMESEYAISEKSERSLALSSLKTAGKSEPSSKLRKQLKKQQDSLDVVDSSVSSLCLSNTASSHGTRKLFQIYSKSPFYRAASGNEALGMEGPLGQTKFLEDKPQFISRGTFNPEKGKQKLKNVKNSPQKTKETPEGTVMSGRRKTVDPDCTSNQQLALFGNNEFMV
UniProt P52701: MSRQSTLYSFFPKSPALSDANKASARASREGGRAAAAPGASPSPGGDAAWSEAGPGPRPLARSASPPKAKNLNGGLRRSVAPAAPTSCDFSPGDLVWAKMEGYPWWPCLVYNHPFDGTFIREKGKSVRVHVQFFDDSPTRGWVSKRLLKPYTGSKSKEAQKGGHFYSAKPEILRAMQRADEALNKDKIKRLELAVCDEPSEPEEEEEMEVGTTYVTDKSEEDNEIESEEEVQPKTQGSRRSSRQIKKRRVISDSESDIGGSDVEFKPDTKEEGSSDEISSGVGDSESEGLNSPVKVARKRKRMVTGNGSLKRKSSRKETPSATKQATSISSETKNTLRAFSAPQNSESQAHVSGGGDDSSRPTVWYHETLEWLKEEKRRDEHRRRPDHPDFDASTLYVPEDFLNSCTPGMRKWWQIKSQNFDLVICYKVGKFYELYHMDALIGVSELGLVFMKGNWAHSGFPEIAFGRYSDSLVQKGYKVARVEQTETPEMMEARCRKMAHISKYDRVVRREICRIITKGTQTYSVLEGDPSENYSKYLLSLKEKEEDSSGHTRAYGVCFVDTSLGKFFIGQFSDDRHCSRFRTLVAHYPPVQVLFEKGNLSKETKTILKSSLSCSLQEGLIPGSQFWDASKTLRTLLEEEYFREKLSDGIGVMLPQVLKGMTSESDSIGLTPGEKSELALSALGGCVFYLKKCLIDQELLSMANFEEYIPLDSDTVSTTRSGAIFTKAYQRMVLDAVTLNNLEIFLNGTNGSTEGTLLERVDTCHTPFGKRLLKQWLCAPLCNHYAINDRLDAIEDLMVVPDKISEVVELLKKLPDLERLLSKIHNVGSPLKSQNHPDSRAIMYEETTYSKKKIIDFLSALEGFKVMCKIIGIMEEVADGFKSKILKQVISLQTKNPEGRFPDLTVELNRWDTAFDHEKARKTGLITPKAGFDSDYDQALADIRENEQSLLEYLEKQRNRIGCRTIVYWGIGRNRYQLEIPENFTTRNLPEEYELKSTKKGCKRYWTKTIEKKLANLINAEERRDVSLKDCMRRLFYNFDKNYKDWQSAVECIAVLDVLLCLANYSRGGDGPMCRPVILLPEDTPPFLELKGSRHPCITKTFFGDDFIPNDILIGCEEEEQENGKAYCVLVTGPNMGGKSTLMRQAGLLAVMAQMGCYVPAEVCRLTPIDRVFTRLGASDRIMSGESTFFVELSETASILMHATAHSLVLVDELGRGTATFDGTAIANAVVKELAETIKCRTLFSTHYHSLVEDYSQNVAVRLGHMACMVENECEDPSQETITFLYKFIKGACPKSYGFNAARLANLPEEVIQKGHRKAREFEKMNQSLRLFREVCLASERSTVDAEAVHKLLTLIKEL
UniProt P43246, whole entry, looked up: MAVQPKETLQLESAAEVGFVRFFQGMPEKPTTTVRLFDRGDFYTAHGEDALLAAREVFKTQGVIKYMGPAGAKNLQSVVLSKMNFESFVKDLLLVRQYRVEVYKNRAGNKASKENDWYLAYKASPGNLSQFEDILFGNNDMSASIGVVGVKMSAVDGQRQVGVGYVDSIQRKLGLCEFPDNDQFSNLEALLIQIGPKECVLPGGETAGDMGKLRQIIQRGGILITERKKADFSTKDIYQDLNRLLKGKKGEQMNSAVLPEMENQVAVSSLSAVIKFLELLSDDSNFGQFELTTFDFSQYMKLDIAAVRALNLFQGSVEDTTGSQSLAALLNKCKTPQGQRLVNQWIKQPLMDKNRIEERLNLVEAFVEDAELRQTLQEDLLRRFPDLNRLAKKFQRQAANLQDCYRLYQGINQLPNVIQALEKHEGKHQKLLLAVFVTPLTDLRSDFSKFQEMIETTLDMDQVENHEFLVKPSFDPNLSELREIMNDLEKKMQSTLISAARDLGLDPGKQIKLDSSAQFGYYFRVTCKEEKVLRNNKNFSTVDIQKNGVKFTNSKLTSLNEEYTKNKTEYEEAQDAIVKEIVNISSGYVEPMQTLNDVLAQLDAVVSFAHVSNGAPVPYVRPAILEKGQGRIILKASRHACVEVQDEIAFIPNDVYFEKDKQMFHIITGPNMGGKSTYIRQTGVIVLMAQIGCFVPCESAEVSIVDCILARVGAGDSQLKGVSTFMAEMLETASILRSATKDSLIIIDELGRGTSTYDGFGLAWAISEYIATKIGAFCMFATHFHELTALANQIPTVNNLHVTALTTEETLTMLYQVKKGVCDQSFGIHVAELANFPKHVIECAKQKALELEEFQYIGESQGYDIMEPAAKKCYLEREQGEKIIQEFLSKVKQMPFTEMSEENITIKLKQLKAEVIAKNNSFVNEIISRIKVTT

[2] = compound: C[C@@H](Oc1cc(-c2cnn(C3CCNCC3)c2)cnc1N)c1c(Cl)ccc(F)c1Cl [crizotinib]
Method in brief: as §1

[3] = compound: C[C@@H]1COCCN1C2=NC(=NC(=C2)C3(CC3)S(=O)(=O)C)C4=C5C=CNC5=CC=C4
Method in brief: as §1

[4] = compound: C[C@H](C1=CC=C(C=C1)C(=O)NC2=C3C=CNC3=NC=C2)N
Method in brief: as §1

[5] = compound: Cc1cc(Nc2cc(N3CCN(C)CC3)nc(Sc3ccc(NC(=O)C4CC4)cc3)n2)n[nH]1 [tozasertib]
Method in brief: as §1

[6] = compound: Cc1ccc(-n2nc(C(C)(C)C)cc2NC(=O)Nc2ccc(OCCN3CCOCC3)c3ccccc23)cc1 [doramapimod]
Method in brief: as §1

[7] = compound: Cc1ccc(C(=O)N(CCCN)[C@@H](c2nc3cc(Cl)ccc3c(=O)n2Cc2ccccc2)C(C)C)cc1 [ispinesib]
Method in brief: as §1

[8] = compound: Cc1ccc(NC(=O)c2ccc(CN3CC[C@H](N(C)C)C3)c(C(F)(F)F)c2)cc1Nc1nccc(-c2cncnc2)n1 [bafetinib]
Method in brief: as §1

[9] = compound: Cn1cc(-c2ccc3c(c2)CCN3C(=O)Cc2cccc(C(F)(F)F)c2)c2c(N)ncnc21
Method in brief: as §1

[10] = compound: Cn1cc(-c2ccc3nnc(C(F)(F)c4ccc5ncccc5c4)n3n2)cn1
Method in brief: as §1

[11] = compound: FC(F)(F)c1ccc(/C=C/c2nc(COc3ccc(CCCCn4ccnn4)cc3)co2)cc1 [mubritinib]
Method in brief: as §1

[12] = compound: C[C@H](Nc1ncnc2nc[nH]c12)c1cc2cccc(Cl)c2c(=O)n1-c1ccccc1 [duvelisib]
Method in brief: as §1

[13] = compound: Cc1cc(Nc2cc(CN3CCOCC3)c3nc(C)c(Cc4ccc(Cl)cc4F)n3n2)n[nH]1 [gandotinib]
Method in brief: as §1

[14] = compound: Cc1cc(SCc2sc(-c3ccc(C(F)(F)F)cc3)nc2C)ccc1OCC(=O)O
Method in brief: as §1

[15] = compound: Cc1cccc(CC(=O)N2CCc3c2ccc(-c2cn(C)c4ncnc(N)c24)c3F)n1
Method in brief: as §1

[16] = compound: Cc1cn(-c2cc(NC(=O)c3ccc(C)c(Nc4nccc(-c5cccnc5)n4)c3)cc(C(F)(F)F)c2)cn1 [nilotinib]
Method in brief: as §1

[17] = compound: Cc1nc(Nc2n[nH]c3c2CN(C(=O)N[C@H](CN(C)C)c2ccccc2)C3(C)C)c2sccc2n1
Method in brief: as §1

[18] = compound: Cc1nc(Nc2ncc(C(=O)Nc3c(C)cccc3Cl)s2)cc(N2CCN(CCO)CC2)n1 [dasatinib]
Method in brief: as §1

[19] = compound: Cc1ncc(-c2ccnc(Nc3ccc(S(C)(=O)=O)cc3)n2)n1C(C)C
Method in brief: as §1

[20] = compound: Cn1cncc1[C@@](N)(c1ccc(Cl)cc1)c1ccc2c(c1)c(-c1cccc(Cl)c1)cc(=O)n2C [tipifarnib]
Method in brief: as §1

Measured: log2 fold change

MXRA8 isoform 2 (UniProt Q9BRK3)
inactive: [1] 0.078 | [2] 0.071 | [3] 0.311 | [4] 0.035 | [5] 0.012 | [6] 0.054 | [7] 0.048 | [8] -0.033 | [9] 0.01 | [10] -0.029 | [11] 0.08

MVB12A (UniProt Q96EY5)
inactive: [1] 0.043 | [2] -0.005 | [3] 0.043 | [12] 0.131 | [13] -0.2 | [5] -0.104 | [14] 0.05 | [6] 0.042 | [7] -0.076 | [8] 0.004 | [15] 0.137 | [16] -0.108 | [17] -0.075 | [18] -0.034 | [19] -0.056 | [10] 0.036 | [20] -0.015 | [11] 0.048

MRPS27 isoform 2 (UniProt Q92552)
inactive: [1] -0.017 | [2] -0.062 | [3] 0.005 | [4] 0.097 | [13] 0.094 | [14] 0.096 | [6] 0.013 | [8] 0.181 | [15] 0.099 | [16] -0.083 | [17] 0.021 | [18] -0.104 | [19] -0.049 | [9] 0.022 | [10] 0.033 | [20] -0.112 | [11] 0.119
active: [7] -0.304

MRPS31 (UniProt Q92665)
inactive: [1] 0.063 | [2] 0.024 | [3] 0.027 | [4] 0.199 | [13] 0.121 | [14] 0.073 | [6] 0 | [8] 0.066 | [15] 0.042 | [16] -0.041 | [17] 0.093 | [18] -0.012 | [19] 0.065 | [9] 0.078 | [10] 0.027 | [20] -0.002 | [11] 0.138
active: [7] -0.28

MT1G (UniProt P13640)
inactive: [1] -0.103 | [2] 0.047 | [4] -0.081 | [12] -0.074 | [13] -0.005 | [5] 0.009 | [14] -0.039 | [6] -0.141 | [7] 0.134 | [8] -0.137 | [15] 0.112 | [16] -0.166 | [17] -0.033 | [18] 0.099 | [19] 0.168 | [9] 0.052 | [10] -0.084 | [20] -0.028 | [11] -0.034

MRPS5 (UniProt P82675)
inactive: [1] 0.123 | [2] -0.061 | [3] 0.125 | [4] 0.169 | [13] -0.08 | [14] 0.131 | [6] 0.071 | [8] 0.153 | [15] 0.159 | [16] -0.287 | [17] 0.118 | [18] -0.073 | [19] 0.067 | [9] 0.039 | [10] 0.087 | [20] -0.13 | [11] 0.22
active: [7] -0.451

MTCH2 (UniProt E9PIE4)
inactive: [1] -0.025 | [2] 0.11 | [3] 0.03 | [12] 0.032 | [14] 0.007 | [6] -0.058 | [8] -0.128 | [16] 0.017 | [17] -0.023 | [18] 0.069 | [19] -0.005 | [20] -0.003 | [11] 0

MT-ND6 (UniProt P03923)
inactive: [1] -0.095 | [2] 0.031 | [4] 0 | [12] 0.206 | [5] -0.077 | [14] -0.248 | [6] 0.135 | [8] -0.106 | [16] 0.094 | [17] -0.113 | [18] 0.18 | [19] -0.097 | [9] -0.062 | [11] -0.145

MUL1 (UniProt Q969V5)
inactive: [1] -0.023 | [2] 0.038 | [3] 0.078 | [4] -0.006 | [13] -0.018 | [14] -0.02 | [6] 0.056 | [7] -0.01 | [8] -0.018 | [15] 0.042 | [16] 0.004 | [17] 0.044 | [18] 0.011 | [19] -0.059 | [9] 0.036 | [10] 0.016 | [20] -0.037 | [11] -0.023

MRPS26 (UniProt Q9BYN8)
active: [7] -0.421
inactive: [1] 0.097 | [2] 0.005 | [3] 0.009 | [4] 0.291 | [13] 0.158 | [14] 0.065 | [6] 0.059 | [8] 0.275 | [15] -0.003 | [18] -0.031 | [9] 0.007 | [10] 0.135 | [20] -0.142 | [11] 0.088

MRPS17 (UniProt Q9Y2R5)
inactive: [1] 0.038 | [2] 0.034 | [3] 0.097 | [4] 0.076 | [13] -0.06 | [14] 0.166 | [6] 0.033 | [8] 0.264 | [15] -0.01 | [16] -0.314 | [17] 0.067 | [18] -0.122 | [19] -0.012 | [9] -0.052 | [10] 0.035 | [20] -0.088 | [11] 0.179
active: [7] -0.345

MT-CO3 (UniProt P00414)
inactive: [1] -0.094 | [2] -0.097 | [4] -0.061 | [12] 0.231 | [5] 0.055 | [14] 0.243 | [6] 0.03 | [7] -0.009 | [18] -0.336 | [9] 0.005 | [10] -0.008 | [20] 0.03 | [11] -0.122

MRPS10 (UniProt P82664)
inactive: [1] 0.028 | [2] 0.005 | [3] -0.033 | [4] 0.08 | [13] 0.019 | [14] 0.002 | [6] 0.029 | [8] 0.057 | [15] 0.119 | [16] -0.097 | [17] 0.006 | [18] -0.005 | [19] -0.046 | [9] 0.002 | [10] -0.096 | [20] -0.104 | [11] 0.1
active: [7] -0.265

MYO9A isoform 4 (UniProt B2RTY4)
inactive: [1] -0.074 | [2] -0.055 | [3] -0.013 | [12] -0.084 | [13] -0.309 | [14] 0.113 | [6] 0.027 | [8] 0.016 | [15] -0.049 | [18] -0.046

MTOR (UniProt P42345)
inactive: [1] 0.003 | [2] -0.23 | [3] 0.08 | [4] 0.06 | [13] -0.138 | [14] 0.024 | [6] 0.001 | [7] -0.184 | [8] -0.018 | [15] 0.014 | [16] -0.158 | [17] 0.068 | [18] -0.166 | [19] -0.069 | [9] 0.004 | [10] 0.037 | [20] -0.12 | [11] 0.068

MTHFD1 (UniProt P11586)
active: [16] 0.214
inactive: [1] 0.101 | [2] -0.15 | [3] 0.107 | [4] -0.003 | [13] -0.077 | [14] 0.054 | [6] -0.053 | [7] -0.021 | [8] 0.077 | [15] 0.096 | [17] -0.051 | [18] -0.135 | [19] 0.019 | [9] 0.069 | [10] 0.021 | [20] -0.088 | [11] 0.122

MSH6 (UniProt P52701)
inactive: [1] 0.075 | [2] -0.427 | [3] 0.152 | [4] -0.018 | [13] -0.196 | [14] 0.185 | [6] -0.053 | [7] -0.087 | [8] -0.019 | [15] 0.101 | [16] -0.116 | [17] -0.179 | [18] -0.325 | [19] -0.1 | [9] 0.139 | [10] 0.167 | [20] -0.174 | [11] 0

Retrieved one by one from the list above (two):
MRPS10 (UniProt P82664)
inactive: [1] 0.028 | [2] 0.005 | [3] -0.033 | [4] 0.08 | [13] 0.019 | [14] 0.002 | [6] 0.029 | [8] 0.057 | [15] 0.119 | [16] -0.097 | [17] 0.006 | [18] -0.005 | [19] -0.046 | [9] 0.002 | [10] -0.096 | [20] -0.104 | [11] 0.1
active: [7] -0.265

MYO9A isoform 4 (UniProt B2RTY4)
inactive: [1] -0.074 | [2] -0.055 | [3] -0.013 | [12] -0.084 | [13] -0.309 | [14] 0.113 | [6] 0.027 | [8] 0.016 | [15] -0.049 | [18] -0.046

The listing continues.

MYLK (UniProt Q15746)
inactive: [1] 0.279 | [2] 0.027 | [4] 0.107 | [13] -0.018 | [14] 0.04 | [7] -0.054 | [15] -0.063 | [17] 0.147 | [19] 0.136 | [9] -0.107 | [10] -0.128 | [20] 0.047 | [11] 0
active: [6] 1.42 | [8] 0.827 | [16] 0.856 | [18] 0.65

MSH2 (UniProt P43246)
inactive: [1] 0.057 | [2] 0.04 | [3] 0.056 | [4] -0.038 | [13] -0.02 | [14] 0.117 | [6] -0.067 | [7] 0.09 | [8] 0 | [15] 0.04 | [16] -0.003 | [17] -0.103 | [18] -0.038 | [19] 0.034 | [9] 0.024 | [10] 0.035 | [20] -0.063 | [11] 0.156

From the supplement of paper PMC10849652
